PubChem BioAssay AID686943, Drosophila RNAi Screening Center, 2013
Assay: 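Fly genes whose loss alters ERK activation after insulin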 (primary screen). Cell system: Drosophila S2R+ haemocyte-like cells expressing YFP-tagged ERK (Rolled). Reagent: long dsRNA against Drosophila genes. Conditions: insulin stimulation versus unstimulated cells; dose and duration not given. Read-out: 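Per-plate z-scores of phospho-ERK immunostaining normalised to YFP-tagged ERK, measured with and without insulin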. Direction: replicate 1, z-score of dpERK with insulin and replicate 2, z-score of dpERK with insulin: higher = more active ERK per ERK-YFP after insulin; replicate 1, z-score of dpERK under basal conditions: higher = more basal active ERK per ERK-YFP; replicate 1, z-score of ERK-YFP with insulin: higher = more YFP-tagged ERK signal.
The deposit covers about 23,000 reagents; this is a random part of those with a known target gene and a result. 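Extra replicates exist only for a retested subset of genes; insulin dose and duration not given; both raised and lowered dpERK matter.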 No sequences are given here. The record does not give: the amount of reagent, the time to read-out.

gene knocked down	DRSC id	replicate 1, z-score of dpERK with insulin	replicate 2, z-score of dpERK with insulin	replicate 1, z-score of dpERK under basal conditions	replicate 1, z-score of ERK-YFP with insulin
lncRNA:CR31044 (GeneID 10178917)	DRSC22451	-0.22	0.43	-0.03	-0.54
CG6362 (GeneID 37032)	DRSC07413	0.1	0	0.05	0.34
CG15865 (GeneID 32641)	DRSC19733	0.28	0.48	-0.07	0.73
UQCR-C2 (GeneID 39846)	DRSC10405	-1.27	-1.56	-0.54	0.78
Tango8 (GeneID 50210)	DRSC06474	-1.94	-2.96	-2.92	-2.43
tomboy20 (GeneID 41285)	DRSC14913	-0.12	0.53	-0.3	0.41
CG30480 (GeneID 246640)	DRSC06736	0.34	0.34	0.8	-0.41
Pepck1 (GeneID 37131)	DRSC07505	0.24	0.6	0.01	0.36
Ir52a (GeneID 36715)	DRSC06262	0.05	-0.24	1.1	0.37
CG15611 (GeneID 36930)	DRSC06563	0.39	1.95	-1.82	0.95
CG15611 (GeneID 36930)	DRSC06564	-0.17	-0.41	0.1	-0.1
CG33489 (GeneID 2768971)	DRSC10588	0.34	0	-1.72	0.28
CG8209 (GeneID 38888)	DRSC10970	0.75	0.06	-0.79	-0.15
CG17575 (GeneID 36414)	DRSC06682	0.31	0.31	-0.33	0.51
TrxT (GeneID 31443)	DRSC22182	0.73	0.99	-0.48	0
CG10628 (GeneID 35263)	DRSC02080	-0.31	-0.1	0.83	0.15
NiPp1 (GeneID 44748)	DRSC07307	0.54	0.24	-0.47	-0.19
CG14095 (GeneID 40112)	DRSC10098	0.42	0.41	-0.23	0.56
CG42750 (GeneID 35090)	DRSC02458	-5.65	0	-1.2	-4.5
CG42750 (GeneID 35090)	DRSC03019	0.39	0.12	0.3	1.12
CG42750 (GeneID 35090)	DRSC03024	0.51	-0.95	-0.24	-0.87
CG42750 (GeneID 35090)	DRSC21414	0.85	-0.28	0.86	-0.33
CG31111 (GeneID 318595)	DRSC14649	-0.8	0	-1.68	-2.05
ifc (GeneID 33836)	DRSC03549	0.13	-0.5	-0.46	0.52
CG31029 (GeneID 318562)	DRSC15422	-1.04	-0.26	-0.03	1.52
BthD (GeneID 32317)	DRSC19395	0.14	-0.62	0.92	0.21
Doa (GeneID 43415)	DRSC13892	-0.39	0.45	-0.88	0.21
Doa (GeneID 43415)	DRSC13893	0.49	0.32	0.04	-1.19
Doa (GeneID 43415)	DRSC13895	0.31	0.1	-0.3	0.27
Doa (GeneID 43415)	DRSC13896	1.02	0.41	0.61	-0.08
Doa (GeneID 43415)	DRSC13897	-0.1	-0.4	0.32	0.04
Doa (GeneID 43415)	DRSC16650	-1.61	0.03	-1.89	3.16
CG43068 (GeneID 12798477)	DRSC05538	-1.04	-0.2	-0.64	0.02
CG6230 (GeneID 34546)	DRSC01989	0.47	-0.21	0.23	0.39
Paip2 (GeneID 41591)	DRSC14504	-0.35	-0.47	-0.89	0.17
lncRNA:CR40053 (GeneID 14462918)	DRSC20833	-1.17	0.32	0.15	0.23
Ufl1 (GeneID 40843)	DRSC12527	0.46	0.19	-0.15	0.39
ETHR (GeneID 42523)	DRSC15915	0.07	0.5	-0.06	-0.3
NPF (GeneID 42018)	DRSC17019	0.99	-0.55	0.22	-0.41
CG17681 (GeneID 35086)	DRSC02632	-0.5	-0.32	-0.29	-0.02
RNaseX25 (GeneID 38885)	DRSC11259	0.07	0.03	-0.29	0.39
CG1236 (GeneID 40708)	DRSC12203	-0.35	-0.45	-0.3	1.08
mwh (GeneID 38131)	DRSC07949	-0.66	-0.64	-0.33	1.24
mwh (GeneID 38131)	DRSC08382	-0.48	0.07	1.02	-0.52
CG11619 (GeneID 40072)	DRSC09849	1.02	0.38	2.03	-0.13
emb (GeneID 34167)	DRSC03528	2.27	1.48	0.12	2.21
Bacc (GeneID 33462)	DRSC00735	0.66	0.27	-0.77	-0.72
Mettl14 (GeneID 34138)	DRSC03073	0.21	-0.67	-0.11	0.06
Cyp4ae1 (GeneID 31193)	DRSC18455	0.05	0.37	-0.62	0.78
CG43867 (GeneID 31031)	DRSC17582	-0.98	-0.7	-0.22	0.31
CG43867 (GeneID 31031)	DRSC17836	0.52	0.35	0.03	0.01
CG43867 (GeneID 31031)	DRSC17837	0.51	0.66	0.31	0.14
CG43867 (GeneID 31031)	DRSC17942	0.85	1.14	0.16	-0.26
CG43867 (GeneID 31031)	DRSC17943	-0.07	1.52	-0.39	-0.03
CG11741 (GeneID 5740784)	DRSC14367	-0.16	-0.08	0.63	0.19
FoxP (GeneID 41182)	DRSC15159	-0.27	-0.25	-0.58	0.31
FoxP (GeneID 41182)	DRSC21961	0.02	-1.54	-0.14	-0.79

2 successive entries from above:
gene knocked down	DRSC id	replicate 1, z-score of dpERK with insulin	replicate 2, z-score of dpERK with insulin	replicate 1, z-score of dpERK under basal conditions	replicate 1, z-score of ERK-YFP with insulin
CG43867 (GeneID 31031)	DRSC17836	0.52	0.35	0.03	0.01
CG43867 (GeneID 31031)	DRSC17837	0.51	0.66	0.31	0.14
